The other results are listed elsewhere or left out. Most entries show no effect beyond the scatter of the controls.
The targets below were run with CN[C@@H]1C[C@H]2O[C@@](C)([C@@H]1OC)n1c3ccccc3c3c4c(c5c6ccccc6n2c5c31)C(=O)NC4 [staurosporine] (assay: log2 fold change of tryptic peptide abundance, ligand vs vehicle (limited proteolysis) (log2 ratio); higher = more trypsin-susceptible (destabilized)). Settings: ligand concentration: 20 uM; sample: mouse liver crude lysate; replicate design: treated separately.

Protein sequences, listed by entry. Tags and fused reporters are not part of them. Lines headed by an entry give the natural chain unless they say otherwise; changes in a name come on top.
UniProt O35386: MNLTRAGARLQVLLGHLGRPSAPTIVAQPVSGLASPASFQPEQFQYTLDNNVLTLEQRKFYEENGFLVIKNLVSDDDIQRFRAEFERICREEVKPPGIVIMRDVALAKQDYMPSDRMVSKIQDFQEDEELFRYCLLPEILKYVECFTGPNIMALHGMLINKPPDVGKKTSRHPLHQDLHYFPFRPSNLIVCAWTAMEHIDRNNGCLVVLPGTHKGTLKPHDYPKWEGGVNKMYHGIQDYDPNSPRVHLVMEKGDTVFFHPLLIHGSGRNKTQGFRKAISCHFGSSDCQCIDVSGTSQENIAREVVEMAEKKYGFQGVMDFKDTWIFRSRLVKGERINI
UniProt D0QMC3: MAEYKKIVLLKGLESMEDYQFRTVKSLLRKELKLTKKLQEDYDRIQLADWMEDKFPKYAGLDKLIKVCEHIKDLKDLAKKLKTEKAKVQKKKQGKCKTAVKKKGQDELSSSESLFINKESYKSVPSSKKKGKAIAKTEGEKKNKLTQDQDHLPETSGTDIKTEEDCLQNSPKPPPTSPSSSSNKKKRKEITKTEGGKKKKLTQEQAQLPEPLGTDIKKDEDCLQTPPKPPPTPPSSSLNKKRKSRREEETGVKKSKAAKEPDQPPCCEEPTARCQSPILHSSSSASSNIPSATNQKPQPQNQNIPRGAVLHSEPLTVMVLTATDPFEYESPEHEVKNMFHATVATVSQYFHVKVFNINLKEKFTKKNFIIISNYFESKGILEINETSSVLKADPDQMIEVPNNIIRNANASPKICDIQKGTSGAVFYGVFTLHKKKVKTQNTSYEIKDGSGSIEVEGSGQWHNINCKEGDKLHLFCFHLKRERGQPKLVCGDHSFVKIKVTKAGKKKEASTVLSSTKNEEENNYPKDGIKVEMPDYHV
UniProt O08849: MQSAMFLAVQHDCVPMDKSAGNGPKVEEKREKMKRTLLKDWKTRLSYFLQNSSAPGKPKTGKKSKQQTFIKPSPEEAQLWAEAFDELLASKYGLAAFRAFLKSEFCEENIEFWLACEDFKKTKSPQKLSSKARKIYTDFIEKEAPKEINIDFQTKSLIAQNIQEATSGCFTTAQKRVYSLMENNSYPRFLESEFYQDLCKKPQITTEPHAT
UniProt G5E8Z2: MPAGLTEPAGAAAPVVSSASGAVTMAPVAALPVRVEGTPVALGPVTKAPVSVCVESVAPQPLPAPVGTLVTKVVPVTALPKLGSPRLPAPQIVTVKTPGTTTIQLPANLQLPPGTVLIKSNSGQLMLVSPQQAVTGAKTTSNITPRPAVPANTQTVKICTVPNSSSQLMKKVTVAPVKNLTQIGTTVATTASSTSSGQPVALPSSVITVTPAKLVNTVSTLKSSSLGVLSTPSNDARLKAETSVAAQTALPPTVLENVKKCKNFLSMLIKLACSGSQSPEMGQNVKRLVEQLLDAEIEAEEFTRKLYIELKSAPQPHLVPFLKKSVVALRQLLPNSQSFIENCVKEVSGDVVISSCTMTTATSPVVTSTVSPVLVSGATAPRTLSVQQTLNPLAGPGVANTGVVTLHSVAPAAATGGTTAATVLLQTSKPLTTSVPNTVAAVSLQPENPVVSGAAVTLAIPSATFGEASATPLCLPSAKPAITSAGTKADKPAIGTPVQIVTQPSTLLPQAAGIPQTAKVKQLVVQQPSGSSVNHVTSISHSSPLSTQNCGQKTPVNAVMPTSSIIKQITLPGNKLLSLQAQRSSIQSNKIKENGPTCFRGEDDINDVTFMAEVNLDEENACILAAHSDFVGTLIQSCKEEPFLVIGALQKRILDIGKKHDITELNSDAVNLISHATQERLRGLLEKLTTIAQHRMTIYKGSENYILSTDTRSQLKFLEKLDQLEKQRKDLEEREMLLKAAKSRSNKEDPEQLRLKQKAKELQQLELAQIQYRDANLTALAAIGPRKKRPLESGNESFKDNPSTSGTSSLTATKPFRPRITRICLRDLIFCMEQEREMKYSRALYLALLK
UniProt O35309: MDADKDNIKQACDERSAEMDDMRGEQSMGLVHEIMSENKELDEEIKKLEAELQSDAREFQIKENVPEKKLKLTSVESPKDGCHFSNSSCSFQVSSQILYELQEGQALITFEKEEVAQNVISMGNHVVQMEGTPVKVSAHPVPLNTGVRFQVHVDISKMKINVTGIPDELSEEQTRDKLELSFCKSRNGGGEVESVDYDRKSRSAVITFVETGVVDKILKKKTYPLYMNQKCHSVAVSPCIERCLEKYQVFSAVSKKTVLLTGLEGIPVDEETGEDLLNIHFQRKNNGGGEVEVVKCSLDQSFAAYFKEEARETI
UniProt G3X9K3: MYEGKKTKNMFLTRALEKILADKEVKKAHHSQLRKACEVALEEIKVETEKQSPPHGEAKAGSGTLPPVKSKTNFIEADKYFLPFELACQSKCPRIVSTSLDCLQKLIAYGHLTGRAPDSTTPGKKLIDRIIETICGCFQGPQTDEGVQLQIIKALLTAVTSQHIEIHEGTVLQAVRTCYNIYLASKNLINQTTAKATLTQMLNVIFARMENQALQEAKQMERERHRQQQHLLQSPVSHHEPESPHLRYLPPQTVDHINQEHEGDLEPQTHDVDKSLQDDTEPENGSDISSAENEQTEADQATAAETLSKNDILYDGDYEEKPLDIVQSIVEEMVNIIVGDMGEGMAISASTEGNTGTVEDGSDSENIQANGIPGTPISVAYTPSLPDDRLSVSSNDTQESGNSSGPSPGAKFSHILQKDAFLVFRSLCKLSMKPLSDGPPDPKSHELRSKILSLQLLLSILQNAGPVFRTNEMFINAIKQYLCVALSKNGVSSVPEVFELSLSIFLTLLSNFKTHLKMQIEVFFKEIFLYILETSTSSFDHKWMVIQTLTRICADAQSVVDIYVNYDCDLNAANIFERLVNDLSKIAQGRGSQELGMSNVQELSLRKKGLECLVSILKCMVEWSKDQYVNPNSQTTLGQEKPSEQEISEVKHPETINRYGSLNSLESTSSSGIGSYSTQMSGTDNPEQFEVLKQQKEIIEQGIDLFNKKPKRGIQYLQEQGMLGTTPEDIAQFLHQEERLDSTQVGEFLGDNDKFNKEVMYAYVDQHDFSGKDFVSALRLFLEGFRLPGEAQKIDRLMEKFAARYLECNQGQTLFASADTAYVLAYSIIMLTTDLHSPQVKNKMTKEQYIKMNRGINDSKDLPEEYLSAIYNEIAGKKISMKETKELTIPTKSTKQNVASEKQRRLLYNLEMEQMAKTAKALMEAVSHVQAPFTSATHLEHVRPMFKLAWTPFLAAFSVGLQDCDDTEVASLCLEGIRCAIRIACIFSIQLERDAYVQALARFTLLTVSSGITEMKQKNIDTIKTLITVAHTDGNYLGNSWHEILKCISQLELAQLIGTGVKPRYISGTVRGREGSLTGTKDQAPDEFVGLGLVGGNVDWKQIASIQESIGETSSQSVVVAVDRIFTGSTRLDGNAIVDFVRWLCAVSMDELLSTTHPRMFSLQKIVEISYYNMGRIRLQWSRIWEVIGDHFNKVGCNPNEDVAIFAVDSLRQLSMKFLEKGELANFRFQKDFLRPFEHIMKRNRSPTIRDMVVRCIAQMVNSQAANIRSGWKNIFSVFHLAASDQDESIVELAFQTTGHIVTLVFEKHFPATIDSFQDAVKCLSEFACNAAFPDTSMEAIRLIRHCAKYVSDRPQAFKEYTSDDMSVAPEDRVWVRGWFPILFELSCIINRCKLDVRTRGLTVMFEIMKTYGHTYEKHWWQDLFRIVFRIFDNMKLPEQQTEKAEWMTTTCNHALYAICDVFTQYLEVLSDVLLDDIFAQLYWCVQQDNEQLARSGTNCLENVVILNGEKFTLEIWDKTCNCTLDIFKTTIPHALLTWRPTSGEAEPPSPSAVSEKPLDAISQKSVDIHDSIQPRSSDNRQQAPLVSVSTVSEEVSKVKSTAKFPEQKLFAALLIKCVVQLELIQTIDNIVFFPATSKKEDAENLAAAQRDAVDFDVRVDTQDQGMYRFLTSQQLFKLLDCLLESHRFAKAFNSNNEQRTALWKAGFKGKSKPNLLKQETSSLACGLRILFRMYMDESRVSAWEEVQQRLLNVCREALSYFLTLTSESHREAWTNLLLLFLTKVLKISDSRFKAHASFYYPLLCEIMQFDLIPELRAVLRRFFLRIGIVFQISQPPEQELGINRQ
UniProt B2RY04, whole entry: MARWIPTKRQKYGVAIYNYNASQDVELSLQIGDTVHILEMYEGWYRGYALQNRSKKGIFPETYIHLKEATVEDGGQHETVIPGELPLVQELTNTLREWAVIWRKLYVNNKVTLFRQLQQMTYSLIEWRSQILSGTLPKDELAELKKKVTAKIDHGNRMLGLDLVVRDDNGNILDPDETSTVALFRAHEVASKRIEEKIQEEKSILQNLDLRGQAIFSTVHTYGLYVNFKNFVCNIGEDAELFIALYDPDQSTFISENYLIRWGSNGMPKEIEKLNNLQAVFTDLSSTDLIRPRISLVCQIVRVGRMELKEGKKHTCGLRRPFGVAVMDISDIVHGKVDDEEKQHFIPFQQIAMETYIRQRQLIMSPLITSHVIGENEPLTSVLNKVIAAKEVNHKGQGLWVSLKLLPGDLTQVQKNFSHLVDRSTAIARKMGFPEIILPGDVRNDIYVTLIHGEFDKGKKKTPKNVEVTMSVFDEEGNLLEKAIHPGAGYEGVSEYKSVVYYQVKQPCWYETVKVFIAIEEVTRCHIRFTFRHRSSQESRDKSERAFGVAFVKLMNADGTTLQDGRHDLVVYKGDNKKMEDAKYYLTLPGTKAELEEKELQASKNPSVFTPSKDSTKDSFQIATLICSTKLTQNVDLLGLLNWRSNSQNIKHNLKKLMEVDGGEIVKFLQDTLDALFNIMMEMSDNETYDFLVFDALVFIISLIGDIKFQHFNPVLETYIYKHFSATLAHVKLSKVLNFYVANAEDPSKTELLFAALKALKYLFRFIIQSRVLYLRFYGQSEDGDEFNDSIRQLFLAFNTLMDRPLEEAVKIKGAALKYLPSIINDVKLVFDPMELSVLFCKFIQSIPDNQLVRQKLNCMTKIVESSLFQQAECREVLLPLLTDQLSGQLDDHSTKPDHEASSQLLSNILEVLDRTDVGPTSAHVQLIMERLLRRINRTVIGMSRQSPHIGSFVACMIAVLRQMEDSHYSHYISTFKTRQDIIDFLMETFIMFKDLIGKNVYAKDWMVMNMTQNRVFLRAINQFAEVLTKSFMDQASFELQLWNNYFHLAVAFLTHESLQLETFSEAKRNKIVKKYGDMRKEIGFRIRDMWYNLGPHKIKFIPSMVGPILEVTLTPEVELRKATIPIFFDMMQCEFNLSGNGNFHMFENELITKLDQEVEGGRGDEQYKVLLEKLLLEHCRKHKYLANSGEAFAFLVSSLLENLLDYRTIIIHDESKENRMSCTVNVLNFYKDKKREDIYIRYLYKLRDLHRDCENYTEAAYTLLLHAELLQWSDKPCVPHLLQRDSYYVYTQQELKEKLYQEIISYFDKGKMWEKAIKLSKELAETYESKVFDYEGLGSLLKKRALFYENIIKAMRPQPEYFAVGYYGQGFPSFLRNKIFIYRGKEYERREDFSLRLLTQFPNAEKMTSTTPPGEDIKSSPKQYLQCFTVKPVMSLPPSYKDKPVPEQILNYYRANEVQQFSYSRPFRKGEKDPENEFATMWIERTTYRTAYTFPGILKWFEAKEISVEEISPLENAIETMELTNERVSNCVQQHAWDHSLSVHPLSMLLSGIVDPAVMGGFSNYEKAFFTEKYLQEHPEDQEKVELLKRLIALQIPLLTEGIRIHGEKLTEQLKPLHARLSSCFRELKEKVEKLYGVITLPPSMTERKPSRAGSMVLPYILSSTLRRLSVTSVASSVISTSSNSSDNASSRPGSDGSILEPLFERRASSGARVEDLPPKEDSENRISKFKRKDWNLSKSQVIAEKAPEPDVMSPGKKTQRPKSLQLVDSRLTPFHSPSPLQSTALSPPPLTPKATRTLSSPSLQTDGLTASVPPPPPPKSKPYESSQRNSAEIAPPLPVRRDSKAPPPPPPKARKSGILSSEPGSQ
UniProt O35445: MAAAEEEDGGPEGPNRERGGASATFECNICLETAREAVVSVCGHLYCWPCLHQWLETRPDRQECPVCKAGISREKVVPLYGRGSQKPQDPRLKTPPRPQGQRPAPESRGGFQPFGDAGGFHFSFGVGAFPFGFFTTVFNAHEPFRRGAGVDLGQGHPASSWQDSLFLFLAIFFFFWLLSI
UniProt B8ZXI1: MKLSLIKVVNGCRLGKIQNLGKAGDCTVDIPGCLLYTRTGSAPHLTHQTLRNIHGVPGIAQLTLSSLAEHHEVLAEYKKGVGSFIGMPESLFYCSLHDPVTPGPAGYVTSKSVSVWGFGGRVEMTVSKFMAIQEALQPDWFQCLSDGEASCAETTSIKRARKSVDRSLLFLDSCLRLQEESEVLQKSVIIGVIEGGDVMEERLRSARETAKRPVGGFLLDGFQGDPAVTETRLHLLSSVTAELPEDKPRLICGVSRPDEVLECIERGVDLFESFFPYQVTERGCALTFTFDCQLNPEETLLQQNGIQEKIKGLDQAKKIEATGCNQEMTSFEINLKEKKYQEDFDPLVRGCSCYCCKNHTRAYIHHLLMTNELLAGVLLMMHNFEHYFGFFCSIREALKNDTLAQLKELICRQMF

| Target | log2 fold change |
| --- | --- |
| UniProt E9Q7E2 (peptide sequence: DALLAGLKQDEPGQVANQK, peptide start residue: 1688) | -0.266 |
| UniProt O35386 (peptide sequence: YGFQGVMDFK, peptide start residue: 312) | 2.66 |
| UniProt D0QMC3 (peptide sequence: VEMPDYHV, peptide start residue: 531) | 0.209 |
| UniProt O08810 (peptide sequence: GGGQIIPTAR, peptide start residue: 717) | -0.311 |
| UniProt E9Q9D5 (peptide sequence: FQSMHASYYHK, peptide start residue: 83) | 0.407 |
| UniProt O09005 (peptide sequence: VSREEFEWVYTDQPHAAR, peptide start residue: 5) | 0.413 |
| UniProt O08849 (peptide sequence: MKRTLLK, peptide start residue: 33) | -0.153 |
| UniProt G5E8Z2 (peptide sequence: DANLTALAAIGPR, peptide start residue: 774) | -0.0395 |
| UniProt E9QAT4 (peptide sequence: AESTLEPK, peptide start residue: 2277) | -0.227 |
| UniProt G3X9J0 (peptide sequence: FAELFSR, peptide start residue: 1765) | -0.402 |
| UniProt O35309 (peptide sequence: CHSVAVSPCIERCLEK, peptide start residue: 231) | -0.564 |
| UniProt O35144 (peptide sequence: KDEHESAAPAEGEGGSDRQPR, peptide start residue: 377) | 0.458 |
| UniProt E9PUQ8 (peptide sequence: VLCETVKDFVAR, peptide start residue: 506) | -0.306 |
| UniProt E9Q286 (peptide sequence: SSGSADSTSWHR, peptide start residue: 753) | -0.449 |
| UniProt G5E8P0 (peptide sequence: WNVHGHVSDASIK, peptide start residue: 1092) | 0.397 |
| UniProt O08734 (peptide sequence: QLALIGDDINRR, peptide start residue: 75) | 0.0706 |

| Target | log2 fold change |
| --- | --- |
| UniProt E9Q5F9 (peptide sequence: VKNDQLR, peptide start residue: 657) | 0.674 |
| UniProt E9PZJ8 (peptide sequence: KAGEDGEVSGEGVLPFDPK, peptide start residue: 353) | -0.397 |
| UniProt O35385 (peptide sequence: VLVLHGGVSDK, peptide start residue: 288) | 0.237 |
| UniProt F2Z461 (peptide sequence: ELSLPLGR, peptide start residue: 785) | -0.402 |
| UniProt B2RUR8 (peptide sequence: NMGGLMHSK, peptide start residue: 520) | 0.329 |
| UniProt G3X9K3 (peptide sequence: IWEVIGDHFNK, peptide start residue: 1184) | 0.294 |
| UniProt B2RY04 (peptide sequence: TAYTFPGILK, peptide start residue: 1491) | -0.402 |
| UniProt O35445 (peptide sequence: GSQKPQDPR, peptide start residue: 83) | -0.0709 |
| UniProt O08832 (peptide sequence: RLPDLDTR, peptide start residue: 48) | -0.184 |
| UniProt F8VPU2 (peptide sequence: ACTLELGPHQSPALPK, peptide start residue: 417) | -0.124 |
| UniProt E9Q349 (peptide sequence: QLQALNPEAGGGK, peptide start residue: 174) | 0.473 |
| UniProt O35231 (peptide sequence: VFEFGYNNR, peptide start residue: 623) | 0.371 |
| UniProt O09164 (peptide sequence: EVDAAEMHAICR, peptide start residue: 67) | 0.444 |
| UniProt E9Q793 (peptide sequence: KKALDYAK, peptide start residue: 704) | -0.0419 |
| UniProt B8ZXI1 (peptide sequence: IKGLDQAK, peptide start residue: 310) | -0.173 |

Part of the list above, set out differently.
Target,log2 fold change
"UniProt O35445 (peptide sequence: GSQKPQDPR, peptide start residue: 83)",-0.0709
"UniProt O08832 (peptide sequence: RLPDLDTR, peptide start residue: 48)",-0.184

— the supplement of paper PMC12819154, “High-throughput peptide-centric local stability assay extends protein–ligand identification to membrane proteins, tissues and bacteria” (Nature Structural & Molecular Biology, 2025)
